{"sequences": {"note": "By UniProt entry, the sequences of proteins in these tests, tags left out. Residues count along the entry.", "UniProt P01138, residues 122-241": "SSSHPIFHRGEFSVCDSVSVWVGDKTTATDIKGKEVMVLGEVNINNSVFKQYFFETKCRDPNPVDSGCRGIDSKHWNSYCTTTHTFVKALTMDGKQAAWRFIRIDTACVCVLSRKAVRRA", "UniProt O14786, residues 22-923": "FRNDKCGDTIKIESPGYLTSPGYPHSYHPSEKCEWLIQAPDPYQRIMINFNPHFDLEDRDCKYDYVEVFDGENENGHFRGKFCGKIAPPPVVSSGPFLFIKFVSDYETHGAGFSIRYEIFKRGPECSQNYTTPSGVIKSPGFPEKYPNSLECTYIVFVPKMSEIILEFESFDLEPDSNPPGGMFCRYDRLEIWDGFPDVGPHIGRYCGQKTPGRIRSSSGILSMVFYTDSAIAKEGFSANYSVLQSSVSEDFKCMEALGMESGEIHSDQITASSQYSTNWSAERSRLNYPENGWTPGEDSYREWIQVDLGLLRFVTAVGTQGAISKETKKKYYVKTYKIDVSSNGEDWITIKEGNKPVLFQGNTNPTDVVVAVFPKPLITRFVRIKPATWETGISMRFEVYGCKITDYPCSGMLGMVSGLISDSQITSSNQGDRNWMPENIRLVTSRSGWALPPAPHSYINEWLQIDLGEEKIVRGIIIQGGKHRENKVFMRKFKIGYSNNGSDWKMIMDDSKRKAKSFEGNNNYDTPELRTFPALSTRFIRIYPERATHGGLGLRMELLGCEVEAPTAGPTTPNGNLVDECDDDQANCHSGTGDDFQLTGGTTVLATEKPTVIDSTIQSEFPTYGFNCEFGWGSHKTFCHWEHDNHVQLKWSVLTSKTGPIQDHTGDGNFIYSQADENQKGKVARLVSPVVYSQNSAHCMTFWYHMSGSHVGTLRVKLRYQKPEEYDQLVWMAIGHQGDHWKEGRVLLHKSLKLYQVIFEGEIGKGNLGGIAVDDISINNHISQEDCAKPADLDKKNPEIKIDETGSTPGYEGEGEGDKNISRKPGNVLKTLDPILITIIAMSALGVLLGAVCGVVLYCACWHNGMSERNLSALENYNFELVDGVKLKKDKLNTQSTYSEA", "UniProt P08138, residues 29-427": "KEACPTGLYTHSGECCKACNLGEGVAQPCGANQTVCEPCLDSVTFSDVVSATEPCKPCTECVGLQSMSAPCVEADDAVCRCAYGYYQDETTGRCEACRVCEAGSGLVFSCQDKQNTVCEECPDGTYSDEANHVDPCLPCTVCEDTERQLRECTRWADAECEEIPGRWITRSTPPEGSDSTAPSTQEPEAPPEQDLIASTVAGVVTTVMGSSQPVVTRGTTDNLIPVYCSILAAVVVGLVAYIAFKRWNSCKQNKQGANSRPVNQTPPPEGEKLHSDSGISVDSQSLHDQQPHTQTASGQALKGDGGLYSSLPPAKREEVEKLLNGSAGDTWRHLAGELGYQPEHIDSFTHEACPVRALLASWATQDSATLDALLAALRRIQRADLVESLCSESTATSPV", "UniProt P68802, residues 28-163": "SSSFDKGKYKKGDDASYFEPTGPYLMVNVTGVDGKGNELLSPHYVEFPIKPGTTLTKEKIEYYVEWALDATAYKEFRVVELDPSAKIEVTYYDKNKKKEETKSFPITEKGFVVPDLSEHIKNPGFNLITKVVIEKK", "UniProt Q16602, residues 23-461": "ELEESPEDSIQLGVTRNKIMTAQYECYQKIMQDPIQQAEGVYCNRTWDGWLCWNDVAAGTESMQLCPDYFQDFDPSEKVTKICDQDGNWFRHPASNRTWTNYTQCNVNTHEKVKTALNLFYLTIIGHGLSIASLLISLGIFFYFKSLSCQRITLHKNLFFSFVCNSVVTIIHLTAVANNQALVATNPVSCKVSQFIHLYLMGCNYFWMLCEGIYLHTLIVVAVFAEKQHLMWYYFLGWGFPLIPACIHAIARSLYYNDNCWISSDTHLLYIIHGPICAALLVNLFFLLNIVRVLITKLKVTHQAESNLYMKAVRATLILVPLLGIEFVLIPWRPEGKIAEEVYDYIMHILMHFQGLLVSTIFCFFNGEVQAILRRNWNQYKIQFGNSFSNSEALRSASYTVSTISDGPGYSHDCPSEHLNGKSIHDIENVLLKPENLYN", "UniProt P04629, residues 33-796": "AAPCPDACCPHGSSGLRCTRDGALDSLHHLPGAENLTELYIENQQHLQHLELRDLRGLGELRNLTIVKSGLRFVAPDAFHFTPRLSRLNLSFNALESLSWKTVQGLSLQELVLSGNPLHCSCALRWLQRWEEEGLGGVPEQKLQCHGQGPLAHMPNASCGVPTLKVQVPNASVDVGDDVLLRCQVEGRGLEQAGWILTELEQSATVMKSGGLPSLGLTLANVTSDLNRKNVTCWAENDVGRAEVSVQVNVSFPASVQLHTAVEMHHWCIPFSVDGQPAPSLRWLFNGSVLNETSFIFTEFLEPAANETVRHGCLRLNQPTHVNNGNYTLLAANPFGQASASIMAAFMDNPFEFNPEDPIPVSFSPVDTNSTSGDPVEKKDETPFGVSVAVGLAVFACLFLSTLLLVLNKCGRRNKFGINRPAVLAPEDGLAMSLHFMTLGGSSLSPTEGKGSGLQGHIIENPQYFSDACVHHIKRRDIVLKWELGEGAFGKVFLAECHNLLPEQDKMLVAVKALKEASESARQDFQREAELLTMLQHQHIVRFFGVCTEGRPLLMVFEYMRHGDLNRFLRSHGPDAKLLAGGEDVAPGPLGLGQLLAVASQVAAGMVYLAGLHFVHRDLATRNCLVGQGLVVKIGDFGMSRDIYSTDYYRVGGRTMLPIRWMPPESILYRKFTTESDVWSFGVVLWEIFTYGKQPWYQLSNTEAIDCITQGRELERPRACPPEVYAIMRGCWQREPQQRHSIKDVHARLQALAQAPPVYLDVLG"}, "source": "paper doi:10.1101/2023.12.06.570398", "key": {"[1]": {"target": "fluorescent human NGF (human) (UniProt P01138)", "test": "MST"}, "[2]": {"target": "SnapTag-NRP1 (human) (UniProt O14786)", "test": "FRET or BRET"}, "[3]": {"target": "Nanoluc-NRP1 (human) (UniProt O14786)", "test": "FRET or BRET"}, "[4]": {"target": "Nanoluc-p75NTR (UniProt P08138)", "test": "FRET or BRET"}}, "note": "Results are given in words; binding and its absence hold for the method and conditions named. For some assays here: Binding seen in cells or lysates may run through a third protein. Some results given as binding are weak or reduced against the parent protein; the word gives no strength."}
{"substance": "staphylokinase (from UniProt P68802 28-163)", "values": [{"measurement": "binding", "setting": "[1]", "value": "no binding"}]}
{"substance": "NGF-HiBiT (from UniProt P01138 122-241) (ligand)", "values": [{"measurement": "binding", "setting": "[2]", "value": "binds"}]}
{"substance": "SnapTag-calcitonin-like receptor (CALCRL) (from UniProt Q16602 23-461)", "values": [{"measurement": "binding", "setting": "[3]", "value": "no binding"}]}
{"substance": "SnapTag-TrkA (from UniProt P04629 33-796) (receptor)", "values": [{"measurement": "binding", "setting": "[3]", "value": "binds"}, {"measurement": "binding", "setting": "[4]", "value": "binds"}]}
